# Library screen at single concentrations

Sequences of proteins named here, by UniProt entry; tags and fusion partners are left off.
UniProt P9WPC5, whole entry: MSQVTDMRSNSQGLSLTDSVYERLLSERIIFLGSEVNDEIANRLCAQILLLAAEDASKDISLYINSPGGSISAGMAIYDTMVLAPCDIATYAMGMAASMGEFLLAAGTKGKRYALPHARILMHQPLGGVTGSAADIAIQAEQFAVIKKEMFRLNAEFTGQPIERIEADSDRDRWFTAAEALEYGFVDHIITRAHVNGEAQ
UniProt P9WPC3, whole entry partner: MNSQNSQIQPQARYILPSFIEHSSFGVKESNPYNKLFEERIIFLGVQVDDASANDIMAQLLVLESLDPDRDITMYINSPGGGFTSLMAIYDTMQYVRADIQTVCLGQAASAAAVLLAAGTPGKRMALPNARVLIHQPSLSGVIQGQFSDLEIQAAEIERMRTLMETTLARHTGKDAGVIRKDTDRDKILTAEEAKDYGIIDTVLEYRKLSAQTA
UniProt I6X8D2, whole entry: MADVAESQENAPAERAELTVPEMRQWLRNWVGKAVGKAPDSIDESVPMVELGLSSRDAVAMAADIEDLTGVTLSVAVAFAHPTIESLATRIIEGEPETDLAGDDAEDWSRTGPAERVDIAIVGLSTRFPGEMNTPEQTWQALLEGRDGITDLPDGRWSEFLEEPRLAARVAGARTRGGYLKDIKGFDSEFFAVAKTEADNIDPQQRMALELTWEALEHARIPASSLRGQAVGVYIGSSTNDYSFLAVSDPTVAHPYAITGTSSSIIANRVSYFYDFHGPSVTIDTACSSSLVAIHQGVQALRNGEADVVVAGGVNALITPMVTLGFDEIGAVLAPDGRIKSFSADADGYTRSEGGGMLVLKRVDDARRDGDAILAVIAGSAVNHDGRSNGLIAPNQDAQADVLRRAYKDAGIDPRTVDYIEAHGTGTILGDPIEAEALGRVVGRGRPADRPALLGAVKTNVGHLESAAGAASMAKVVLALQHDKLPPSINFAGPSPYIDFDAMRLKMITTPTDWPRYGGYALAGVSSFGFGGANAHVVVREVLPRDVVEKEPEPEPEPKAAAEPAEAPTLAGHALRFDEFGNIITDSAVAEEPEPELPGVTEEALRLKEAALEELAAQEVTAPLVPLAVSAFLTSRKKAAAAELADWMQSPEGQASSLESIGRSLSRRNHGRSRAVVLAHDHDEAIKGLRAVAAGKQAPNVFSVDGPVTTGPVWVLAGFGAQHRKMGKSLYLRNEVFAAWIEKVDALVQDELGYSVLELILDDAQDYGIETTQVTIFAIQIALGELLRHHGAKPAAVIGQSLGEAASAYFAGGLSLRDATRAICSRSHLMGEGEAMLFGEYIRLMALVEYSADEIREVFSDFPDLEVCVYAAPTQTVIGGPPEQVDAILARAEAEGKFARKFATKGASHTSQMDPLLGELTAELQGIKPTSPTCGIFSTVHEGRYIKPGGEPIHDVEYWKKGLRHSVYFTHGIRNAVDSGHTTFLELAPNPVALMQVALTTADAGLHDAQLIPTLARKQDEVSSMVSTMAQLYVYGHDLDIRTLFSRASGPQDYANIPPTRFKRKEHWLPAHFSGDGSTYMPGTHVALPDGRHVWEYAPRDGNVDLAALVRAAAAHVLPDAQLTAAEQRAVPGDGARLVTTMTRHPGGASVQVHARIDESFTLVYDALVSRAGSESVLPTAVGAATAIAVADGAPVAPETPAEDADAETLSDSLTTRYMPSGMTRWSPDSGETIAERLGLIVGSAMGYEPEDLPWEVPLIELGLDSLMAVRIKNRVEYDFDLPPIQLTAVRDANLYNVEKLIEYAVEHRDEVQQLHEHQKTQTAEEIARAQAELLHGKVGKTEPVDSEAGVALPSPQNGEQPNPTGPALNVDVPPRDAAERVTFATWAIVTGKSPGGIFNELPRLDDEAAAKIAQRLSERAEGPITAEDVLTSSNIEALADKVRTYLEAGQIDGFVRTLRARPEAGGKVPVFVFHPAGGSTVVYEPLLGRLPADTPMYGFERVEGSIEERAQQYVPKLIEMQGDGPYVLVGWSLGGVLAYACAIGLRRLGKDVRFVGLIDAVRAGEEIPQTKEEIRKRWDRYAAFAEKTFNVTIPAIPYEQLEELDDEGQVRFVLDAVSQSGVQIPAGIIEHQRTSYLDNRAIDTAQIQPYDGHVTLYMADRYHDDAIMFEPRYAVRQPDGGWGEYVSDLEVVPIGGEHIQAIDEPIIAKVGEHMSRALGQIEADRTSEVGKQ

From ChEMBL document CHEMBL3988442, “University of Dundee, Small-Polar-MMV Screening Library” (2021).

Values are the deposited “Percent Effect”, in %. How 0% and 100% were set is not recorded. Most values in the screen are low, and negative values occur. Compounds were drawn at random from those tested, without regard to their results. Two or more numbers in one place are separate tests of the same structure; such repeats can differ widely. A dash means the value is not listed here; it may have been measured.

Leishmania in macrophages: 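Cell assay of Leishmania donovani living inside macrophages; the read-out is not stated. Tested at 30 µM. Higher reads as stronger inhibition (inferred: compounds with an IC50 in retests scored well above the rest). Of about 69,000 compounds tested this way, about 1,000 (1.5%) reached 50% or more in at least one test.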
Toxoplasma: 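Assay of Toxoplasma gondii numbers, read through their beta-galactosidase reporter with a colour substrate. Concentration: 10 µM. The record gives no direction; the compounds picked for IC50 retests had high values, so higher reads as fewer parasites. About 67,000 compounds were tested under these conditions; 0.38% (about 260) showed 50% or more at least once.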
ClpP1P2: 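ClpP1P2, Mycobacterium tuberculosis (UniProt P9WPC5 and UniProt P9WPC3). Protease assay of ClpP1P2, read by the AMC dye that it sets free. Concentration: 50 µM. Direction is inferred from only a few compounds that gave an IC50; most scored high, so higher reads as stronger inhibition. Most other retested compounds had strongly negative values. Size under these conditions: about 69,000 compounds, about 10 of them at 50% or above in at least one test.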
T. brucei: 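Whole-parasite assay of Trypanosoma brucei over 72 hours; the read-out is not stated. Compounds at 30 µM. Higher reads as stronger inhibition (inferred: compounds with an IC50 in retests scored well above the rest). Values scatter widely below zero; nearly all retest evidence comes from the higher of the two concentrations used. Of about 64,000 compounds tested this way, about 940 (1.5%) reached 50% or more in at least one test.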
Pks13 thioesterase: 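Polyketide synthase Pks13, Mycobacterium tuberculosis (UniProt I6X8D2). Enzyme assay of the thioesterase domain of polyketide synthase 13; the read-out is not stated. Tested at 30 µM. Higher reads as stronger inhibition (inferred from which compounds were picked for retests). About 67,000 compounds were tested under these conditions; 0.46% (about 300) showed 50% or more at least once.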

Compound | Leishmania in macrophages | Toxoplasma | ClpP1P2 | T. brucei | Pks13 thioesterase
OC1CCCOC12CCN(CCCOc1ccccc1F)CC2 (stereo not given) | 13.74 | -6.157 | -11.4 | 9.334 | 1.345
Cc1cccc(-n2nc(CC(C)C)nc2[C@H](C)O)c1 | 11.01 | -2.581 | -6.387 | -5.223 | -7.783
Cn1cc(C(=O)N2CCC(c3nccn3Cc3ccncc3)CC2)cn1 | 18.37 | -40.63 | -16.99 | -44.23 | -9.577
Cc1nc(O)ccc1C(=O)N1CCCC1c1nc(-c2ccccc2)n[nH]1 (stereo not given) | 5.625 | -12.91 | -6.366 | -18.17 | -25.57
Cn1ccnc1CN1CCN(Cc2ccccc2C#N)CC1 | 11.11 | -8.6 | 4.813 | 22.48 | -4.806
Cc1ccc(-c2cc(CNC(=O)N3CCC(N(C)C)CC3)on2)cc1 | 7.004 | 2.776 | -18.22 | 9.242 | -6.951
CCc1cc(OC)c(OC)cc1C(=O)Nc1cccnc1 | -74.28 | -8.726 | -12.37 | - | -5.036
CC(=O)NC1CCN(c2cc(C3CCNCC3)ccn2)CC1 | - | - | -6.404 | - | 6.57
CCN(CC)C(=O)c1ccn(COc2cccc(Cl)c2Cl)n1 | 18.2 | 6.788 | -5.358 | 0.1756 | -24.04
CN1CCOC(CNCc2coc(-c3cccc(F)c3)n2)C1 (stereo not given) | 4.806 | -39.02 | 6.716 | 41.18 | -19.15
COc1cc2c(cc1OC)CN(C(=O)NC(C)c1nncn1C)CC2 (stereo not given) | -4.796 | 2.634 | -11.87 | -30.13 | -15.72
CNc1nc(CNC(=O)Nc2ccccc2-c2noc(C)n2)cs1 | -18.72 | -0.5646 | 9.646 | -41.13 | -18.57
[H][C@@]12CN(Cc3cc4ccccc4o3)C[C@]1([H])N(Cc1ccccn1)C(=O)O2 | -0.6596 | 1.361 | - | -15.43 | -
COc1ccc(-c2cc(-c3nc(CN4CCN(C)CC4)no3)[nH]n2)cc1 | 30.41 | 1.99 | 12.65 | 21.05 | -23.48
CC(=O)Nc1cccc(Cn2nc(C)nc2C)c1 | 11.62 | -4.442 | 0.1015 | 0.8403 | 5.885
CCc1nc2n(n1)CC(NCc1cnn(Cc3ccccc3)c1)CC2 (stereo not given) | 34.14 | -5.109 | -6.925 | - | -21.29
Cc1cc(C(=O)N2CCOCC2c2nc(C)c[nH]2)nc(O)n1 (stereo not given) | 19.14 | -24.27 | 13.41 | 14.88 | -22.51
N#Cc1ccc(C(=O)N2C[C@@H](CN3CCCC3)C[C@H](CO)C2)cc1 | -5.729 | 1.507 | -6.925 | -12.8 | -25.45
CN(CCc1ccccn1)C(=O)C(O)c1ccc(Br)cc1 (stereo not given) | -22.44 | -13.85 | -8.446 | -23.74 | -6.084
CCOC(=O)c1cnn(-c2cc(Oc3cc(C)ccc3C)ncn2)c1N | -5.269 | 13.52 | 10.03 | -25.84 | -9.375
O=C(O)C(F)(F)F.[H][C@]12CCC[C@@]1(COCc1ccncc1)CN(C(=O)c1ccccc1)C2 | -7.441 & -21.36 | -3.499 | - | -75.85 | -
CCn1cc(NS(=O)(=O)c2ccc(Br)s2)c(C(=O)NCC(C)C)n1 | -0.6051 | 7.473 | -6.087 | -15.47 | -7.316
CC1CCN(c2cc(CCC3CCCN3)ncn2)CC1.Cl (stereo not given) | -11.41 | -13.35 | - | 38.76 | -
CC(NC(=O)Nc1ccncc1)c1ccc2c(c1)CC(=O)N2 (stereo not given) | 2.403 | 14.96 | 7.237 | -27.6 | -21.14
COCCN1CCC2(CCCN(C(=O)c3cncn3C)C2)CC1 | - | - | -8.648 | - | 2.45
CC(C)CCC(=O)NCC(=O)N1CCCCCC1c1ccco1 (stereo not given) | 0.3345 | -1.42 | -9.618 | -11.31 | -17.28
NC(=O)c1ccnc(N2CCCC(CO)(Cc3ccccc3)C2)c1 (stereo not given) | 39.34 | 10.08 | -21.71 | -53.86 | 5.954
Cc1ccc(NCC2(O)CCNCC2)cc1C | -19.76 | 1.498 | -13.68 | - | -29.09
Cc1nonc1NC(=O)C1SCCc2sccc21 (stereo not given) | -32.46 | 5.625 | -2.625 | -12.86 | 26.57
O=C(O)C(F)(F)F.[H][C@@]12CCN(Cc3ccc(F)cc3)C[C@]1([H])[C@@H](CNS(C)(=O)=O)OC2 | 2.388 | 2.778 | - | -24.09 | -
CC(C)c1noc(CCC(=O)N2CCN(Cc3ccncc3)CC2)n1 | 21.47 | -16.62 | -6.402 | -14.33 | -17.42
Cn1cnnc1C1CCCN(C(=O)CCc2ccc3c(c2)OCO3)C1 (stereo not given) | 4.363 | 3.358 | 3.081 | -8.689 | -12.14
O=C(NCc1ccco1)[C@H]1CC[C@@H]2[C@@H](CCN2Cc2nccs2)O1 | - | - | -0.7538 | - | -23.91
Cc1c(C(=O)NC2=NCCS2)cnn1-c1ccc(Br)cc1 | 29.49 | -17.39 | -7.819 | -3.94 | -13.2
OC(CN1CCN(Cc2cccc(F)c2)CC1)C1CC1 (stereo not given) | - | - | -2.414 | - | -20.23
CN(CCc1nc(-c2cccc(Cl)c2)no1)CCn1cccn1 | 10.21 | 1.966 | -10.83 | -7.449 | -7.688
Cc1ccc(=O)n(CC(=O)N(C)Cc2csc(-c3cccs3)n2)n1 | 6.951 | - | -2.999 | -19.79 | -8.549
CC(C)(C(=O)NCC(=O)NCc1ccccc1)c1ccccc1F | -89.9 | 11.74 | -1.018 | - | -13.6
O=C(O)C(F)(F)F.O=C(O)C(F)(F)F.[H][C@@]12COC[C@]1([H])[C@H](OCc1ccccn1)CN2Cc1ccc(C)o1 | -2.259 | 0.5403 | - | -53.46 | -
CCC(CNC(=O)COC)Oc1cccc(F)c1 (stereo not given) | -25.74 | 5.238 | 7.392 | -64.89 | 60.41
[H][C@@]12CS(=O)(=O)C[C@]1([H])N(Cc1ccc(OCC)cc1)CCN2CCOC | -10.08 | -8.471 | - | -24.57 | -
COCCCN1CC2(CCN(Cc3cc(C(C)C)no3)CC2)CC1=O | -4.658 | -2.514 | -5.251 | -13.38 | -2.363
CCC(Nc1nccc(C2CCCC2)n1)c1ccccn1 (stereo not given) | -9.055 | 11.18 | -16.14 | -192.2 | -9.55
Cc1cc(C)c2c(N3CCC(C(=O)N4CCOCC4)CC3)ncnc2n1 | -19.53 | 22.99 | 19.59 | -34.63 | 8.055

The first 5 entries again:

{"compound": "OC1CCCOC12CCN(CCCOc1ccccc1F)CC2", "stereo": "stereo not given", "Leishmania in macrophages": 13.74, "Toxoplasma": -6.157, "ClpP1P2": -11.4, "T. brucei": 9.334, "Pks13 thioesterase": 1.345}
{"compound": "Cc1cccc(-n2nc(CC(C)C)nc2[C@H](C)O)c1", "Leishmania in macrophages": 11.01, "Toxoplasma": -2.581, "ClpP1P2": -6.387, "T. brucei": -5.223, "Pks13 thioesterase": -7.783}
{"compound": "Cn1cc(C(=O)N2CCC(c3nccn3Cc3ccncc3)CC2)cn1", "Leishmania in macrophages": 18.37, "Toxoplasma": -40.63, "ClpP1P2": -16.99, "T. brucei": -44.23, "Pks13 thioesterase": -9.577}
{"compound": "Cc1nc(O)ccc1C(=O)N1CCCC1c1nc(-c2ccccc2)n[nH]1", "stereo": "stereo not given", "Leishmania in macrophages": 5.625, "Toxoplasma": -12.91, "ClpP1P2": -6.366, "T. brucei": -18.17, "Pks13 thioesterase": -25.57}
{"compound": "Cn1ccnc1CN1CCN(Cc2ccccc2C#N)CC1", "Leishmania in macrophages": 11.11, "Toxoplasma": -8.6, "ClpP1P2": 4.813, "T. brucei": 22.48, "Pks13 thioesterase": -4.806}